From patent US7741047B2, “Method for treating autoimmune diseases and screening method for preventive or therapeutic agent for the same” (Kowa Co., Ltd., priority 2003, dated 2010)
At least one compound was matched to its structure with a doubt left.

Tests used:
salivary gland cells = assay: Estradiol pretreatment before Tam-induced apoptosis; assay type: cell-based; conditions: pretreatment with E2 10^−9 M twenty-four hours before stimulation by Tam
RBAp48 mRNA in HSG cells = assay: Northern blotting of genes with enhanced expression by anti-estrogen effect; assay type: cell-based, human; conditions: addition of estradiol 10^−9 M

For `C[C@]12CC[C@@H]3c4ccc(O)cc4CC[C@H]3[C@@H]1CC[C@@H]2O` [estradiol], the “apoptosis of the cells induced by Tam” value (salivary gland cells) was “suppressed” and the “tamoxifen-enhanced mRNA (RBAp48 gene) expression” value (RBAp48 mRNA in HSG cells) was “reduced”.
